Experimental data as given in PubChem BioAssay AID2685 (National Center for Advancing Translational Sciences (NCATS), 2010).
Some of the results follow. Further columns of the screen follow, without active or inactive calls. The list favours compounds with an active or inconclusive main result. The note in brackets gives the kind of curve behind each potency; many fits are weak.

Experiment: qHTS Assay for Lipid Storage Modulators in Drosophila S3 Cells;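 for cell number change: cells counted by Cell Tracker Red CMTPX staining in the red channel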
Conditions: BODIPY lipid droplet fluorescence, 18-24 h; for cell number change: measured here: cell count max response, cells fed with added oleic acid
Summary of the method: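 Laser-scanning cytometry quantifies lipid droplet accumulation (500–530 nm total intensity; droplet/cell object ratio) in oleic acid-fed (400 uM added) Drosophila S3 cells treated with a concentration series. 20 uM Triacsin C defined 100% inhibition.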

[1] = measured here: cell number channel AC50, cells fed with added oleic acid
[2] = measured here: lipid fluorescence (Fed channel) AC50, cells fed with added oleic acid

| SMILES | cell number change [%] | AC50 [1] | AC50 [2] |
| --- | --- | --- | --- |
| O=C(CCNC(=O)Cn1cnc2ccccc2c1=O)NCCC1=CCCCC1 | -38.6 | 23.1 µM [falling, partial curve] | 13 µM [falling, partial curve, poor fit] |
| Cc1cccc(NC(=O)CSc2nnc(C)c(C)n2)c1 | 10.9 |  |  |
| CCOCCOC(=O)c1ccc(-n2cnc(C)n2)nc1 | -36 | 29.1 µM [falling, single point] |  |
| COc1ccc(N2CC(O)(c3ccc(OC(F)F)cc3)[N+]3=C2CCCC3)cc1 (stereo not drawn) | -59.7 | 0.103 µM [falling, full curve, poor fit] | 5.17 µM [falling, full curve] |
| O=C(NC(=S)NCc1cccnc1)c1ccccc1[N+](=O)[O-] | -50.9 | 16.4 µM [falling, partial curve, poor fit] | 18.4 µM [falling, single point] |
| NC(=O)Cn1cnc2c(nnn2-c2ccc(F)cc2)c1=O | 23.4 |  |  |
| O=C(Nc1ccc2c(c1)OCCO2)C1CCN(c2cnccn2)CC1 | 25.4 |  | 7.31 µM [rising, partial curve] |
| CCn1c(SCCC(=O)Nc2ccccc2)nnc1-c1ccc(OC)cc1 | 0.397 |  | 29.1 µM [falling, single point] |
| COC(=O)C(NS(=O)(=O)c1ccc(C)cc1)c1ccccc1 (stereo not drawn) | 19.7 |  |  |
| Cc1ccc(C(=O)n2nc(-n3cccc3)c3c(C)cc(C)nc32)cc1 | 32.1 |  | 6.51 µM [falling, partial curve, poor fit] |
| O=C(CNC(=O)c1ccc(F)cc1)c1ccc(Cl)cc1 | 9.17 |  |  |
| Cc1cc(C(=O)N/N=C(\CCC(=O)O)c2cccs2)c2ccccc2n1 |  |  | 2.06 µM [falling, partial curve] |
| O=C(NCc1ccco1)/C(=C/c1ccc([N+](=O)[O-])cc1)NC(=O)c1ccco1 | 10.3 |  | 0.116 µM [rising, single point] |
| CSc1ccc(CN(C)Cc2nc3cc(C(F)(F)F)ccc3c(=O)[nH]2)cc1 | -9.25 |  |  |
| COc1ccc(-c2csc3nc[nH]c(=O)c23)cc1OC | 4.5 |  |  |
| Cc1cc(C(=O)NC2CCCN(Cc3ccc(Cl)cc3)C2)no1 (stereo not drawn) | -21.8 |  | 29.1 µM [rising, single point] |
| CC1CCCCN1CCNC(=O)c1ccc2c(c1)N(Cc1ccccc1)C(=O)c1ccccc1S2(=O)=O (stereo not drawn) |  |  | 1.3 µM [rising, full curve] |
| O=C(O)c1ccc(S(=O)(=O)c2ccc([N+](=O)[O-])cc2[N+](=O)[O-])cc1 | 24.8 |  | 18.4 µM [rising, partial curve] |
| COc1ccc(CNC(=O)C/C(C)=N/NC(=O)COc2cccc(C)c2)cc1 | 3.3 |  | 0.082 µM [falling, full curve, poor fit] |
| O=C(Nc1ccccc1F)c1ccc(CSc2ccccc2)o1 | 10.9 |  |  |
| COC(=O)C1=C(C)N(Cc2ccc(OC)c(OC)c2)C(=O)C1 | 15.4 |  |  |

| SMILES | cell number change [%] | AC50 [1] | AC50 [2] |
| --- | --- | --- | --- |
| Cc1ccc(OCC(=O)N/N=C\c2cccs2)c([N+](=O)[O-])c1 | 23 |  | 20.6 µM [rising, single point] |
| O=C(NCS(=O)(=O)c1ccccc1)c1ccccc1 |  |  | 1.3 µM [falling, full curve] |
| Cc1ccc(-c2cc(C(=O)NCc3cccs3)no2)cc1 | 12.4 |  | 6.51 µM [rising, partial curve, poor fit] |
| Cc1cc2nc(/N=C(\N)NC(=O)N3c4ccccc4Sc4ccccc43)nc(C)c2cc1C | 26.2 |  | 2.06 µM [rising, partial curve] |
| Cc1cccc(-n2ncc3c(NCc4cccs4)ncnc32)c1 | -37.3 |  | 7.31 µM [falling, partial curve, poor fit] |
| CCCOc1ccccc1NC(=O)Nc1ccccc1Cl | 45.1 | 29.1 µM [rising, single point] | 29.1 µM [rising, single point] |
| COC(=O)c1ccc(CN2CCN(CC=C(C)C)C(CCO)C2)cc1 (stereo not drawn) | 18.5 |  |  |
| Cc1cccc(NS(=O)(=O)c2ccc(C)c(NS(=O)(=O)c3cccs3)c2)c1 | -55.6 | 32.6 µM [falling, single point] |  |
| COCCCN1C(=O)N(c2ccc(F)cc2)C(=O)C1CC(=O)Nc1ccc(OC)cc1 (stereo not drawn) | 27.9 |  |  |
| CCOc1ccc(S(=O)(=O)NCC2CCCO2)cc1 (stereo not drawn) | 24.6 |  | 18.4 µM [rising, single point] |
| COc1cccc(-n2nnc3c(=O)n(CC(=O)Nc4cc(C)on4)cnc32)c1 | -9.91 |  | 0.13 µM [falling, full curve, poor fit] |
| O=C(CSc1nnc(-c2ccccc2)n1Cc1ccco1)Nc1ccc2c(c1)OCCO2 | -14.7 |  | 0.00651 µM [falling, full curve, poor fit] |
| Fc1cccc(CN(C2=NCCN2)c2c(Cl)cccc2Cl)c1 | -8.6 |  | 0.731 µM [rising, single point] |
| Cc1sc2nc(-c3ccccn3)[nH]c(=O)c2c1-c1ccccc1 | -64 | 14.6 µM [falling, partial curve, poor fit] | 14.6 µM [falling, partial curve] |
| Cc1cc(C2(c3ccc(O)c(C)c3)OC(=O)c3ccccc32)ccc1O | -18 |  | 6.51 µM [rising, single point] |
| COC(=O)c1nn(-c2cccc(C(F)(F)F)c2)c(=O)cc1Sc1ccccn1 | 175 |  | 29.1 µM [rising, single point] |
| Cc1ccc(NC(=O)/C(=C/c2cccc(Br)c2)NC(=O)c2ccco2)cc1 | 47.9 | 2.59 µM [rising, partial curve, poor fit] | 6.51 µM [rising, partial curve] |
| O=C(N=Nc1c(O)n(Cc2ccccc2)c2ccccc12)c1ccc(O)cc1 | 5.49 |  |  |
| Cc1sc2nc(CN3CCCC3)nc(N3CCC(C(N)=O)CC3)c2c1C |  | 0.164 µM [falling, full curve, poor fit] |  |
| O=c1c2cc(NC(=S)NC3CCCCC3)ccc2nc2n1CCCCC2 |  | 6.51 µM [rising, single point] |  |
| CCOC(=O)c1c(NC(=O)CSc2nnnn2-c2ccc3c(c2)OCCO3)sc(C)c1C | 20.8 |  | 1.46 µM [rising, full curve] |

No new results follow: an excerpt of the list.

| SMILES | cell number change [%] | AC50 [1] | AC50 [2] |
| --- | --- | --- | --- |
| COC(=O)C(NS(=O)(=O)c1ccc(C)cc1)c1ccccc1 (stereo not drawn) | 19.7 |  |  |
| Cc1ccc(C(=O)n2nc(-n3cccc3)c3c(C)cc(C)nc32)cc1 | 32.1 |  | 6.51 µM [falling, partial curve, poor fit] |
| O=C(CNC(=O)c1ccc(F)cc1)c1ccc(Cl)cc1 | 9.17 |  |  |

Next compounds follow.

| SMILES | cell number change [%] | AC50 [1] | AC50 [2] |
| --- | --- | --- | --- |
| O=C(CN1C(=O)NC(Cc2c[nH]c3ccccc23)C1=O)NC1CCCCC1 (stereo not drawn) | -0.778 |  | 2.59 µM [rising, full curve] |
| O=C(Cc1ccccc1)NC(NNc1ccccc1)(C(F)(F)F)C(F)(F)F | -22.5 |  | 18.4 µM [falling, partial curve, poor fit] |
| COc1cc(C(=O)NCC(=O)N/N=C/c2ccccn2)cc(OC)c1OC | -60.3 | 29.1 µM [falling, single point] | 25.9 µM [falling, partial curve] |
| Cc1ccc(C)c(NC(=O)c2cc3ccccn3n2)c1 | 14.7 | 1.46 µM [rising, partial curve] | 2.59 µM [rising, partial curve] |
| COc1ccc(S(=O)(=O)N2CCCCCC2)cc1C(=O)NCCc1ccccc1 | -8.52 |  |  |
| CCOC(=O)CNC(=O)CSc1nc(C)cc(C)c1C#N | 7.04 |  |  |
| Cc1cccc(NC(=O)c2ccc([N+](=O)[O-])cc2Cl)n1 | 17.2 |  | 0.651 µM [falling, full curve, poor fit] |
| NC(=O)N/N=C/c1ccccc1OC(=O)c1ccccc1Br | -49.4 | 29.1 µM [falling, single point] | 18.4 µM [falling, single point] |
| O=C(Nc1ccc(Cl)cc1)C(Cl)C(=O)c1ccccc1 (stereo not drawn) | 27.9 | 0.259 µM [rising, full curve, poor fit] |  |
| C=CCn1c(C)cc(C(=O)COC(=O)CNC(=O)c2ccccc2)c1C | -1.79 |  | 0.0164 µM [falling, full curve, poor fit] |
| COC(=O)CSc1ccc2nnc(CCNS(=O)(=O)c3ccccc3)n2n1 | -19.2 | 2.59 µM [falling, single point] |  |
| COC(=O)CN(n1cnnc1)S(=O)(=O)c1ccc(C)cc1 | -2.12 |  | 0.146 µM [falling, full curve, poor fit] |
| COc1ccc(Cl)cc1NC(=O)CSc1nc(NS(=O)(=O)c2ccccc2)cc(=O)[nH]1 | -27.6 | 1.84 µM [falling, partial curve] |  |
| Cn1nnnc1SCC(=O)Nc1ccccc1[N+](=O)[O-] | 14.5 |  | 1.84 µM [rising, partial curve, poor fit] |
| Cc1ccc(NC(=O)CNC(=O)CC23CC4CC(CC(C4)C2)C3)c(O)c1 | -58.1 | 2.06 µM [falling, full curve, poor fit] | 7.31 µM [falling, partial curve] |
| Cn1c(=O)c(NC(=O)c2ccccc2)c2n(c1=S)CCCCC2 |  |  | 0.461 µM [falling, single point] |
| O=C(Nc1ccc(Oc2nnc(-c3ccccc3)c3ccccc23)cc1)c1ccccc1 | 14.8 |  |  |
| COc1ccc(C(=O)COC(=O)CCc2nc3ccccc3[nH]c2=O)cc1Br | 17.2 |  |  |
| CCC(=O)Nc1cccc(-c2nc3ccccc3o2)c1 |  |  | 0.651 µM [rising, single point] |
| CCOC(=O)c1cnc(N)nc1C(F)(F)F | 32.4 |  | 14.6 µM [rising, partial curve, poor fit] |
| Cc1cc2cccc(C)c2nc1SCC(=O)N(C)c1nc(-c2ccccc2)cs1 | 17.8 |  |  |
